The other results are listed elsewhere or left out.
Each compound was assayed on T1, CTL2-GFP (C. trachomatis L2/434/Bu, GFP-expressing). Conditions: bulk GFP, single well; 28.5 h, 10 µM; inhibitor.
T1 construct: L2/434/Bu, GFP-expressing
Design: species or system HeLa; Intracellular C. trachomatis growth in HeLa cells, bulk GFP fluorescence relative to DMSO

Compound	% of control remaining [%]
COC(=O)c1c(C)[nH]c(C(=O)CSc2ncnc3sc(C)c(-c4ccccc4)c23)c1C [CBK266004]	130.201
O=C(Cc1ccccc1)N(Cc1ccco1)C1CCN(c2ccc3c(c2)OCCO3)CC1 [CBK286529]	93.8984
O=C(Cn1nc2n(c1=O)CCCC2)NCc1ccccc1Cl [CBK304647]	93.8066
CCOC(=O)c1cccc(NS(=O)(=O)c2cc(F)c(Br)cc2F)c1 [CBK034333]	116.722
O=C(C1CC1)N1C[C@@H](c2ccsc2)[C@@H]2CN(C3CCCC3)CC[C@@H]21 [CBK283382]	93.6967
O=C(COc1ccccc1)Nc1nn(Cc2ccc(S(=O)(=O)N3CCCC3)cc2)c2ccccc12 [CBK061594]	162.624
COc1ccc(-c2nnc(SCc3cc(=O)oc4cc(C)ccc34)n2CC(C)C)cc1 [CBK297518]	142.038
C[C@]12CN(C(=O)C3CCCC3)C[C@H]1NC(=O)c1ccccc1C2=O [CBK281672]	117.684
C=CCN1C(=O)C2(CC(=O)N(CCCN(C)S(C)(=O)=O)C2=O)c2cc(F)ccc21 (centres unmarked) [CBK075319]	100
CC1CCCN(C(=O)CC(NC(N)=O)c2cccc(Br)c2)CC1 (centres unmarked) [CBK305804]	118.238
OCC[C@H]1CN2CCCC2CN1Cc1cccn1-c1ccccc1F (some centres unmarked) [CBK282977]	137.526
COc1ccccc1CN(Cc1cccnc1)C(=O)NC(C)C(C)C (centres unmarked) [CBK307672]	141.721
O=C(NC(=S)Nc1ccc2[nH]c(=O)[nH]c2c1)c1ccc(F)cc1 [CBK263986]	100
O=C(c1ccc(NCCCCO)nc1)N1CCC(N2CCOCC2)CC1 [CBK306521]	92.0189
COc1ccc(CCC(=O)Nc2cccc(-c3ccc(OC4CCNCC4)cc3)c2)cc1OC [CBK131925T]	130.014
Cc1ccc(S(=O)(=O)N(CC(=O)Nc2ccccc2C)Cc2ccc(Cl)c(Cl)c2)cc1 [CBK264735]	100
C=CCC1(CC=C)CCN1C(=O)c1cc(-c2c(C)nn(C)c2C)n[nH]1 [CBK282575]	107.584
Cc1c(-c2ccc(Cl)cc2Cl)nc2ccccc2c1C(=O)NCCC(c1ccccc1)c1ccccc1 [CBK262634]	117.477
Fc1ccc(-n2nnnc2SCc2ccc(Cl)cc2)cc1Cl [CBK102075]	85.0266

Compound	% of control remaining [%]
O=C(Nc1ccccc1Br)C1CCCC1 [CBK092059]	101.578
CSCCCNC(=O)c1ccc2nc[nH]c2c1 [CBK153314]	74.373
CCCc1cc(C(=O)Nc2nccs2)cs1 [CBK288212]	135.273
COCc1cc(-c2ccc(C(=O)N3CCN(C)CC3)nc2)ccc1OCC1CCN(C(=O)OC(C)(C)C)CC1 [CBK174511]	100.173
CCCc1nn(Cc2ccccn2)c(=O)c2cc3ccsc3n12 [CBK284229]	128.534
CC(=O)c1ccc(-c2nccnc2N2CCN(c3ccncc3)CC2)s1 [CBK037015]	189.842
CSc1ccc([C@H]2[C@H](C(=O)O)CC(=O)N2Cc2ccccc2)cc1 [CBK286934]	126.241
CC[C@H]1C[N@@]2CC[C@H]1C[C@@H]2CNS(=O)(=O)c1cccc2cccnc12 [CBK288747]	137.345
CC(C)(C)n1cc(C(=O)N2CCNCC2c2cccc(Cl)c2)cn1 (centres unmarked) [CBK304112]	156.355
CN(C)c1ccc(-c2nccnc2NS(=O)(=O)c2ccc(C(F)(F)F)cc2)cc1 [CBK050802]	101.159
CC(C)(C)OC(=O)N1CCC(N2CCc3cc(-c4ccc(S(C)(=O)=O)cc4)ccc3C2)CC1 [CBK165796]	119.814
COc1cc(/C=N/Nc2nonc2N)cc(OC)c1OC [CBK025758]	78.5477
COc1cc(CN2CCCC3(CCN(C(=O)c4cc(F)c(F)cc4F)C3)C2)cc(OC)c1OC (centres unmarked) [CBK131988]	99.4233
CN1CCC(N2CCN(C(=O)NCC(c3ccccc3)c3ccccc3)CC2)CC1 [CBK156096]	103.714
COCOc1ccc(-c2nc(-c3cnc(OC)nc3OC)cnc2N)cc1 [CBK063991]	169.765
O=S(=O)(Nc1ccccc1OC(F)(F)F)c1ccc(N2CCNCC2)c2ccccc12 [CBK003933C]	110.727
CN(C)CCCNC(=O)c1cnc2cc(Cl)ccc2c1O [CBK107354]	100
CC(C)(C)OC(=O)NCCNCc1ccccc1C(F)(F)F [CBK056695]	131.284
O=C(COc1ccc(C(=O)c2ccc(F)cc2)cc1)c1ccc2c(c1)OCCO2 [CBK297536]	110.578

2 neighbouring compounds out of the list so far:
Compound	% of control remaining [%]
CCCc1nn(Cc2ccccn2)c(=O)c2cc3ccsc3n12 [CBK284229]	128.534
CC(=O)c1ccc(-c2nccnc2N2CCN(c3ccncc3)CC2)s1 [CBK037015]	189.842

Source: article PMC12040169 (PLOS Biology, 2025)
